# Measurements taken from article PMC10932164.
# These are yes or no findings as the source states them, for the method shown. In cells and extracts the contact can be indirect. Some entries that bind do so weakly or less than the wild type.
# Molecular target: Myelin basic protein (MBP), N-terminal flanked with FLAG epitope (UniProt P02686)
# Test: co-IP; HEK 293T cells co-transfected with Strep-Bri2 variant and FLAG-MBP, 48 h; lysis in TNE buffer (50 mM Tris-HCl pH 7.4, 100 mM NaCl, 1 mM EDTA) with 1% octyl beta-D-glucopyranoside; ANTI-FLAG M2 Affinity Gel at 4 °C overnight; eluates immunoblotted
substance,measurement,value
"Bri2 with deletion of the Bri23 peptide (mBri2, mature Bri2) with N-terminal Strep-Tag (from UniProt Q9Y287 1-243) (domain or fragment)",binding,binds
"full-length human Bri2 (integral membrane protein 2B, ITM2B) with N-terminal Strep-Tag (from UniProt Q9Y287 1-266)",binding,binds
